Assay results published in patent publication US5244920A, “Pharmaceutical compositions having therapeutical activity based on mercaptoethansulphonic arginine salt” (Schering Spa, priority 1985, dated 1993).
Where a name gives a salt, the structure may show the parent alone. At least one structure is not confirmed: it was looked up by name or label, or the drawing left a doubt.

What was measured:
[1] = bonding power of MESNA towards 3-OH-AA in 24 hours urine samples from bladder cancer patients (HPLC); type: binding; conditions: for decrease (3-OH-AA): room temperature
[2] = in vitro bonding power of MESNA in respect to AA, physiological solution; type: binding; conditions: 2 hours after MESNA addition
[3] = bonding power of MESNA towards AA in 24 hours urine samples from bladder cancer patients (HPLC); type: binding; conditions: for decrease (AA): room temperature
[4] = in vitro bonding power of MESNA in respect to 3-OH-AA, physiological solution; type: binding; conditions: 2 hours after MESNA addition
[5] = tested on: tryptophan and its urinary metabolites; test: urinary levels of tryptophan metabolites in treated patients suffering from bladder carcinoma; type: in vivo
[6] = thermostated at 37.5° C., after a 6 hours interval
[7] = equimolar ratio, pH 7, 37.5°C, P-0.001

| SMILES | decrease (3-OH-AA) [1] | decrease (3-OH-AA) ([1]; only after 12 hours) | disappearance of 3-hydroxy-anthranilic acid [1, 6] | presence of a (MESNA+AA) peak in the chromatogram [2] | reduction of AA concentration [2, 7] [%] | decrease (AA) [3] | decrease (AA) ([3]; only after 12 hours) | disappearance of anthranilic acid [3, 6] | presence of a (MESNA+3-OH-AA) peak in the chromatogram [4] | reduction of 3-OH-AA concentration [4, 7] [%] | urinary levels of tryptophan metabolites [5] |
| --- | --- | --- | --- | --- | --- | --- | --- | --- | --- | --- | --- |
| O=S(=O)(O)CCS [MESNA, mercaptoethansulphonic acid] | consistent decrease | almost complete | completely disappeared | a fourth (MESNA+AA) peak was recorded | -29 | consistent decrease | almost complete | completely disappeared | presence of a third (MESNA+3-OH-AA) | -42 |  |
| O=S(=O)(O)CCS [sodium salt, sodium mercaptoethansulphonate] |  |  |  |  |  |  |  |  |  |  | normalization |
